Measurements published in PMC5715071.

Chains of the proteins cited; added tags and fusions are not shown. Lines headed by an entry give the natural chain unless they say otherwise; changes in a name come on top.
UniProt O88900: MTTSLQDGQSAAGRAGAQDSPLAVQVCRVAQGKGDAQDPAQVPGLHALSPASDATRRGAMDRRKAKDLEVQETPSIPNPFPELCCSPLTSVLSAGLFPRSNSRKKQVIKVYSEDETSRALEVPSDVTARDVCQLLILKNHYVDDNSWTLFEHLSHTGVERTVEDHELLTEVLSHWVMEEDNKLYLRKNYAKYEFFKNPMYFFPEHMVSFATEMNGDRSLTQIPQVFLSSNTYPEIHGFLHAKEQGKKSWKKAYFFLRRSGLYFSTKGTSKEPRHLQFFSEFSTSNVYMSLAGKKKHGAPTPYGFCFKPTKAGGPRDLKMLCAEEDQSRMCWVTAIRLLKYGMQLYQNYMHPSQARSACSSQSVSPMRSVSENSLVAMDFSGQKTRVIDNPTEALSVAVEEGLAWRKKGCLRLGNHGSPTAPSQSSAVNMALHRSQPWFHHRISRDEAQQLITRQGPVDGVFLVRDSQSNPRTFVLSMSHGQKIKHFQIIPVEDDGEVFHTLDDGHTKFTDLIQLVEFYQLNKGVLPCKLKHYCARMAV
UniProt P06213: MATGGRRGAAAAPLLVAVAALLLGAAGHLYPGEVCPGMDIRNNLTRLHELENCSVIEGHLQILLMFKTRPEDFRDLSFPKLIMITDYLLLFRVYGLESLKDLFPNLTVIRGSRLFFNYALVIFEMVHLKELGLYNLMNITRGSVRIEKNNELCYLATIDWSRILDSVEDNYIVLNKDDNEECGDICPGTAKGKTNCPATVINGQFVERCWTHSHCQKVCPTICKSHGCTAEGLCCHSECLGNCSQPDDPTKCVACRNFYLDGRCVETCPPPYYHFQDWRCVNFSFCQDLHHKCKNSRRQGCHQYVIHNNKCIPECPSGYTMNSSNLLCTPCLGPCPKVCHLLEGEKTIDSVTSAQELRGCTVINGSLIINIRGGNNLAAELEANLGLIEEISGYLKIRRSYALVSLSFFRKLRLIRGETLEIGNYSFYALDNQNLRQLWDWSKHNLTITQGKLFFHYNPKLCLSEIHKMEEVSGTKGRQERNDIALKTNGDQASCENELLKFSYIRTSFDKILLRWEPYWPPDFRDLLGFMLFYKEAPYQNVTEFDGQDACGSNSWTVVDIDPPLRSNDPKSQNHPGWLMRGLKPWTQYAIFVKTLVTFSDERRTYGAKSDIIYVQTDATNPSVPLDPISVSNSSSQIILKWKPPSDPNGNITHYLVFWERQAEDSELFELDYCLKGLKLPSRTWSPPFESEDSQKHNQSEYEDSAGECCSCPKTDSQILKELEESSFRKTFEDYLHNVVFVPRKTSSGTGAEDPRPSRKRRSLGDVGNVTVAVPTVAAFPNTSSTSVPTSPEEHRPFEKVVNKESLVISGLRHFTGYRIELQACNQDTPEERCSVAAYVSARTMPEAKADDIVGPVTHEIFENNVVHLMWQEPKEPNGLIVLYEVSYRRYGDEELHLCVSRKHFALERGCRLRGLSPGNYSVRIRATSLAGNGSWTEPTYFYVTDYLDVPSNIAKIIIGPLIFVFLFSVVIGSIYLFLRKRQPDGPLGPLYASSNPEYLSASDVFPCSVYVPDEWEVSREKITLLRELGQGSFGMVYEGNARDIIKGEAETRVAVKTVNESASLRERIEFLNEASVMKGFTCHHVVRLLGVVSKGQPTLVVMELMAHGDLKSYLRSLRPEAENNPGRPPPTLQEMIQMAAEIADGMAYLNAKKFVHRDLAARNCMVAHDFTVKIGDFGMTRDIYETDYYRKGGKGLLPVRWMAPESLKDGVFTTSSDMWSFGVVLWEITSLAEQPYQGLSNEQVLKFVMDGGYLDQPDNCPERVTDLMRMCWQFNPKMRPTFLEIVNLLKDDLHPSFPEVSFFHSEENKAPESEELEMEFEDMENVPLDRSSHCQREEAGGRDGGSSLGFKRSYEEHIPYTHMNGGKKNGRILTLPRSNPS

Target: Growth factor receptor-bound protein 14 fused to YFP (Grb14-YFP) (UniProt O88900)
Assay: co-IP; HEK-293T cells co-transfected with IRTK48-Rluc and Grb14-YFP or YFP-Grb10, with or without 50 µM C8 for 4 h; lysate with anti-GFP antibody and protein G-agarose 2 h 30 min at 4 °C; blot with anti-Luc

“Tyrosine kinase domain of the insulin receptor fused to Renilla luciferase (IRTK48-Rluc) (from UniProt P06213) (domain or fragment)” was tested, and the binding was “binds”.

These are yes or no findings as the source states them, for the method shown. In cells and extracts the contact can be indirect. Binding can be weak; no strength is given.
